From paper PMC3887213 come the findings set out here.

Protein sequences, listed by entry. Tags and fused reporters are not part of them. Lines headed by an entry give the natural chain unless they say otherwise; changes in a name come on top. Chains listed by the source or under a name are the forms on record and can include a tag or linker. Residues count along the entry.
UniProt Q5S007: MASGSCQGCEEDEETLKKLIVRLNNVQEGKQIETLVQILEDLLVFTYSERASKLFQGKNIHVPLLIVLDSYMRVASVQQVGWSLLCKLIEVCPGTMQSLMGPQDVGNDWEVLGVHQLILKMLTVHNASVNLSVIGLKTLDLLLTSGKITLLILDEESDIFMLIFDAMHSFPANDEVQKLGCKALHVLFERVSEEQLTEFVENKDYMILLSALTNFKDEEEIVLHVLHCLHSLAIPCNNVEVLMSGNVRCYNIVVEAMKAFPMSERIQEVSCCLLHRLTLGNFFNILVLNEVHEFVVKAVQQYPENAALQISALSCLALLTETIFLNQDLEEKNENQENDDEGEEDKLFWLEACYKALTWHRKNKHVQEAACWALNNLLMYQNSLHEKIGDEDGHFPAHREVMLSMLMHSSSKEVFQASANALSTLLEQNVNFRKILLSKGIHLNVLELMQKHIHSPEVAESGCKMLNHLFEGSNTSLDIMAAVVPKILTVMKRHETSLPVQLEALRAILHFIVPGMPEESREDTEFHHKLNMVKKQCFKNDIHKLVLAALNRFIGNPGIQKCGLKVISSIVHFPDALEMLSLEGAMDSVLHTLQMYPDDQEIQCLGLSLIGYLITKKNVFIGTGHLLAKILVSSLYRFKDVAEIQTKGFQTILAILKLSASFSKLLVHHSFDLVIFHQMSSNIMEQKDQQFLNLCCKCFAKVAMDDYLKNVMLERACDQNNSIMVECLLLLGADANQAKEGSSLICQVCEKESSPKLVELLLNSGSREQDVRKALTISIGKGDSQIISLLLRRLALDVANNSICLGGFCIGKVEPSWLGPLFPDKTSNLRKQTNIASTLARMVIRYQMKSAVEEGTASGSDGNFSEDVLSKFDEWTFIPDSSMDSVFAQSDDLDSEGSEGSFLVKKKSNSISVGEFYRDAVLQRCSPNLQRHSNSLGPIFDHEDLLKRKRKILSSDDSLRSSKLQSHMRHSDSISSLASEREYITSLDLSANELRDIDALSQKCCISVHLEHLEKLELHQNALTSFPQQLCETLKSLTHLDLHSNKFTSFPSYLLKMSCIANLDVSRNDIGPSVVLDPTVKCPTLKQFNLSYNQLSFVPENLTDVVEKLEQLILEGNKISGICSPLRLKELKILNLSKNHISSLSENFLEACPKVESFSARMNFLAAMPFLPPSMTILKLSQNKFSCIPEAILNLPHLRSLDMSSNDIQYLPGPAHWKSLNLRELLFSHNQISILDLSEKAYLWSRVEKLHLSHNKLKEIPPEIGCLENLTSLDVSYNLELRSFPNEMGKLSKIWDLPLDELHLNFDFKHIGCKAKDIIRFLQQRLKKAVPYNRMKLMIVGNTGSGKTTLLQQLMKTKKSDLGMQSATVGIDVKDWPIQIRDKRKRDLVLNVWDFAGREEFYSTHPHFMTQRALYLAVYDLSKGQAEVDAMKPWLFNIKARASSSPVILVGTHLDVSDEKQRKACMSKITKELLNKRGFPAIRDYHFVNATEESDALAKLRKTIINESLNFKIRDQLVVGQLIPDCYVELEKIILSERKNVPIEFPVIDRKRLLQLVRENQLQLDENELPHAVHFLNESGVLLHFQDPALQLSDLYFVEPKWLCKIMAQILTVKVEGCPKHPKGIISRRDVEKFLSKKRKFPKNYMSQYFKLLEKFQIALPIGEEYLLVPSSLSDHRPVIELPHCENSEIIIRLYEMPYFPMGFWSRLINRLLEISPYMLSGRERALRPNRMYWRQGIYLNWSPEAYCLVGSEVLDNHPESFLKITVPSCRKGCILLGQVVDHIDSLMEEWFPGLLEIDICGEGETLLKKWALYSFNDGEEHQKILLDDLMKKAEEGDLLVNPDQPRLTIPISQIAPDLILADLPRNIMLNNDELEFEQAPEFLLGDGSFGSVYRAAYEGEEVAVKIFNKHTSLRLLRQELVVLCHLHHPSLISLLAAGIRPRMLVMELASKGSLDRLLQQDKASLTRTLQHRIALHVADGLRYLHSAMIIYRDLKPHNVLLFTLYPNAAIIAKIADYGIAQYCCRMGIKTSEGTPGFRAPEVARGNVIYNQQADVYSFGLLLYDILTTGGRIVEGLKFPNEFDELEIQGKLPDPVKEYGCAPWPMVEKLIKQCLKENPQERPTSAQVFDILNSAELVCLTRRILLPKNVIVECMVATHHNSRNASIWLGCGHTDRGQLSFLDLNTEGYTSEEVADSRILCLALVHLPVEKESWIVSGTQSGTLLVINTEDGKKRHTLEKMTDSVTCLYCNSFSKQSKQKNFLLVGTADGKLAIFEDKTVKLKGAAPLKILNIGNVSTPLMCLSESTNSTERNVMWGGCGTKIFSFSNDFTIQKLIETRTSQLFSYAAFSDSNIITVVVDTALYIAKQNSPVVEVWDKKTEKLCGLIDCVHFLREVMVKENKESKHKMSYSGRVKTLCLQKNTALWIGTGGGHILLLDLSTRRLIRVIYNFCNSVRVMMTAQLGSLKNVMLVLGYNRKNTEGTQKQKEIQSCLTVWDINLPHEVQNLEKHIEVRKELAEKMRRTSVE
UniProt Q9BQE3: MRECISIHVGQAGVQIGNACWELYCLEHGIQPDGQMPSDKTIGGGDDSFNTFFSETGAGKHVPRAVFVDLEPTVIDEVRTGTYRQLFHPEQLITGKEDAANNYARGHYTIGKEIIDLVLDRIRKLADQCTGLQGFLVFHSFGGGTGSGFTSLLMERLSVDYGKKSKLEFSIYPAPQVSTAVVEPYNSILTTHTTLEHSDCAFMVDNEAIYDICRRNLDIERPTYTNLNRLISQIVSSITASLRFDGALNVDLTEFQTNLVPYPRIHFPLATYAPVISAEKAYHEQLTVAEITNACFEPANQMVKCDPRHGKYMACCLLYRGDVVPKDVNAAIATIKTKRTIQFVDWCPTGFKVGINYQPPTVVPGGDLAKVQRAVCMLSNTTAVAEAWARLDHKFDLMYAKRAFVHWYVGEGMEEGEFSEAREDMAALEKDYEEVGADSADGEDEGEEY
UniProt P68366: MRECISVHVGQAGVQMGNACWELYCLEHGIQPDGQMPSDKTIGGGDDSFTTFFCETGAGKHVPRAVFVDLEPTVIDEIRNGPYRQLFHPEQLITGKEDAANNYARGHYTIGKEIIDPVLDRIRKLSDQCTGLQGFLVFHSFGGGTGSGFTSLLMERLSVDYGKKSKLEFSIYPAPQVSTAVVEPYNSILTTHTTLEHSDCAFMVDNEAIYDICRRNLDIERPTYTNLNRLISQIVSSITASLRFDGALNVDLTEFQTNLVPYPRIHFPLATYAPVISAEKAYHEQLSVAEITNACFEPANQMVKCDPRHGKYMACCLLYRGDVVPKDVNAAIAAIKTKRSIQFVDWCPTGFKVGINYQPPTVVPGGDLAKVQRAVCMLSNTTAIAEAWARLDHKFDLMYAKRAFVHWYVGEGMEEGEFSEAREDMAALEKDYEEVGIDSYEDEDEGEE
TUBB1 C terminus (Phe-317 to the stop codon), GAL4-AD prey (Q9H4B7, residues 317-451): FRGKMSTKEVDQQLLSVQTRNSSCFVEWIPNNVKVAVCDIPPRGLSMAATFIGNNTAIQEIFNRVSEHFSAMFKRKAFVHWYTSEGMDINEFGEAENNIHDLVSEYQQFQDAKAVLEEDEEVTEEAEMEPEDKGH
TUBB1 N371S C terminus, GAL4-AD prey (Q9H4B7, form named): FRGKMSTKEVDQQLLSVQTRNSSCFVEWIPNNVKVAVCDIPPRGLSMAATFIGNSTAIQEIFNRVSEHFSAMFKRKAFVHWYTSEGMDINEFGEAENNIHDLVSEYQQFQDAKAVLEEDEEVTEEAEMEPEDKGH
TUBB1 S362K C terminus, GAL4-AD prey (Q9H4B7, form named): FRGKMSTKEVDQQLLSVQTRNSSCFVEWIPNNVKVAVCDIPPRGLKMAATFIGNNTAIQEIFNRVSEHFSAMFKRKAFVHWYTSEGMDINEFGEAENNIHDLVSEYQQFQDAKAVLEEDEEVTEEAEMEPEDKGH
TUBB2A C terminus (Phe-317 to the stop codon), GAL4-AD prey (Q13885, residues 317-445): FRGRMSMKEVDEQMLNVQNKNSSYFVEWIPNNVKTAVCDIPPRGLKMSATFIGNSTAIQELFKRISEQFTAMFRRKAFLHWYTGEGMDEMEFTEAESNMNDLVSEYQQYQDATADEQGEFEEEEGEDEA
TUBB2A S364A C terminus, GAL4-AD prey (Q13885, form named): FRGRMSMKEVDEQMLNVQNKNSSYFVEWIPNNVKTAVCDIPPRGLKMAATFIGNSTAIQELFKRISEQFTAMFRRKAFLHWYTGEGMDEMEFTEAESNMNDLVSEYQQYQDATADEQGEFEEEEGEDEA
TUBB2B C terminus (Phe-317 to the stop codon), GAL4-AD prey (Q9BVA1, residues 317-445): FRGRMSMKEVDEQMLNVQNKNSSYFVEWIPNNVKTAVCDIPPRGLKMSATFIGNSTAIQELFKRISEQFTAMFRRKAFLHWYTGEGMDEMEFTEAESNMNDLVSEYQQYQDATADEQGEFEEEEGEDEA
TUBB2B S364A C terminus, GAL4-AD prey (Q9BVA1, form named): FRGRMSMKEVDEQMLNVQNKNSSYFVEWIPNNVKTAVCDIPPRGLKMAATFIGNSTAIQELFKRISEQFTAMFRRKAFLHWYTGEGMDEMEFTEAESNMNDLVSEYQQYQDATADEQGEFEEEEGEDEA
TUBB2C C terminus (Phe-317 to the stop codon), GAL4-AD prey (P68371, residues 317-445): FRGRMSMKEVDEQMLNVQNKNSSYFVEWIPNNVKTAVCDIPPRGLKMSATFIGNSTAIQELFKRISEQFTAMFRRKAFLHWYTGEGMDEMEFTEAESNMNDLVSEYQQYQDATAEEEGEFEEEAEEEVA
TUBB2C S364A C terminus, GAL4-AD prey (P68371, form named): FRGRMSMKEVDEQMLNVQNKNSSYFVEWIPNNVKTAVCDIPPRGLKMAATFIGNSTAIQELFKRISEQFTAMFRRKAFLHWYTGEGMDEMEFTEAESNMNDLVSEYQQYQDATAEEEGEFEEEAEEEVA
TUBB3 C terminus (Phe-317 to the stop codon), GAL4-AD prey (Q13509, residues 317-450): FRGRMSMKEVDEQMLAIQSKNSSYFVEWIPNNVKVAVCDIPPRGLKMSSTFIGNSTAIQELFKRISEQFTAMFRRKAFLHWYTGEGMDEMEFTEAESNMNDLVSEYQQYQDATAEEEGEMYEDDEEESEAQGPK
TUBB3 S364A C terminus, GAL4-AD prey (Q13509, form named): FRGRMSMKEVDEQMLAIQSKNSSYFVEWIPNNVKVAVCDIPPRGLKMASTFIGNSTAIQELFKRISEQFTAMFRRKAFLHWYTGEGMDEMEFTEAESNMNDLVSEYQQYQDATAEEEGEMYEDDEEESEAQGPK
TUBB4 C terminus (Phe-317 to Ala-444), GAL4-AD prey (P04350, residues 317-444): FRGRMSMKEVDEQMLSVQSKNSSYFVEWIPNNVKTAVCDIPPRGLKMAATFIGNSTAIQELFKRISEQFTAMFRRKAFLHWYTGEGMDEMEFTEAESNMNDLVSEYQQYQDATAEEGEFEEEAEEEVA
TUBB4 A364D C terminus, GAL4-AD prey (P04350, form named): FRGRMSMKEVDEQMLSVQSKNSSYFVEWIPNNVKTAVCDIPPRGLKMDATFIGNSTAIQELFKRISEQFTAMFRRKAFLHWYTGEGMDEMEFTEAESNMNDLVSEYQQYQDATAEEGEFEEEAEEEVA
TUBB4 A364E C terminus, GAL4-AD prey (P04350, form named): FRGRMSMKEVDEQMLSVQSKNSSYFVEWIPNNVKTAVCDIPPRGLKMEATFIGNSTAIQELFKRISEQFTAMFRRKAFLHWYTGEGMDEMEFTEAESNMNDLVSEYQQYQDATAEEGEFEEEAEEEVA
TUBB4 A364S C terminus, GAL4-AD prey (P04350, form named): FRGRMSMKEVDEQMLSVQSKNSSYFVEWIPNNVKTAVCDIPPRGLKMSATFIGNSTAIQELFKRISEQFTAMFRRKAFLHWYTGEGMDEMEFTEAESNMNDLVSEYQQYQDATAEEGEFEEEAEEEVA
TUBB6 C terminus (Phe-317 to the stop codon), GAL4-AD prey (Q9BUF5, residues 317-446): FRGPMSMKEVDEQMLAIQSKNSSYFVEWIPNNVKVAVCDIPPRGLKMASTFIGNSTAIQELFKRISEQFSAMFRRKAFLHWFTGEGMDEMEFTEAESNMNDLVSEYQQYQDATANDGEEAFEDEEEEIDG
TUBB6 A364S C terminus, GAL4-AD prey (Q9BUF5, form named): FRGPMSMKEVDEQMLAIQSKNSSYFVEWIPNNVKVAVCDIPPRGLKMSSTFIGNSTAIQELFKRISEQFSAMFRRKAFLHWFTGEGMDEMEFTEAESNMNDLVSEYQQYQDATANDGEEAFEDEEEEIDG
TUBB6 K362S C terminus, GAL4-AD prey (Q9BUF5, form named): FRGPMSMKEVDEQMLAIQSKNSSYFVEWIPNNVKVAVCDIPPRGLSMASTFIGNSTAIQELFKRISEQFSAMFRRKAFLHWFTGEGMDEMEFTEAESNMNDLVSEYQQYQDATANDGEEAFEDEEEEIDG
TUBB6 P320R C terminus, GAL4-AD prey (Q9BUF5, form named): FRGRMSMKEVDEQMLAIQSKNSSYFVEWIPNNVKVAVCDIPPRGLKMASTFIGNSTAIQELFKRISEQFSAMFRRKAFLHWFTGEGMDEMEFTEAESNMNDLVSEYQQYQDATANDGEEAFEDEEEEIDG
TUBB6 P320R/A364S C terminus, GAL4-AD prey (Q9BUF5, form named): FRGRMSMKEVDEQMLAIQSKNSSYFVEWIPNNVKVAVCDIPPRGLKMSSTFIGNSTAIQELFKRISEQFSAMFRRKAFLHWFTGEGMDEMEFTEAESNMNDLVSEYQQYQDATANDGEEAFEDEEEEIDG
TUBB6 P320R/K362S C terminus, GAL4-AD prey (Q9BUF5, form named): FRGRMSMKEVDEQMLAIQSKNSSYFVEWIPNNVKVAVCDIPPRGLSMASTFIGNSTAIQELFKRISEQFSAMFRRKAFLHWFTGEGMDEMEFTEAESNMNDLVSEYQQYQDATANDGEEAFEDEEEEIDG

Results are given in words; binding and its absence hold for the method and conditions named. Binding calls can cover weak binding; strength is not graded here. For some assays here: In cells and extracts the contact can be indirect.

The first test addresses LRRK2 RocCOR tandem domain (LexA-BD bait, wild type) (human) (UniProt Q5S007). The test can be described thus: two-hybrid; yeast L40, LexA-BD baits and GAL4-AD preys; selection without Leu, Trp, His with 0.5 mM 3-amino-1,2,4-triazole, 30 °C 3-6 days; semiquantitative LacZ freeze-fracture assays.
As to “TUBA1C (yeast two-hybrid construct) (from UniProt Q9BQE3 1-449)”, the binding result is on record as “no binding”.
On to “TUBA4A (yeast two-hybrid construct) (from UniProt P68366 1-448)”, for which the binding entry is “no binding”.
As for “TUBB1 C terminus (Phe-317 to the stop codon), GAL4-AD prey (from UniProt Q9H4B7 317-451) (domain or fragment)”, the binding result is reported as “no binding”.
On to “TUBB1 N371S C terminus, GAL4-AD prey (from UniProt Q9H4B7 317-451) (domain or fragment)”, for which the binding result is on record as “no binding”.
Still for that read-out and setting: in the case of “TUBB1 S362K C terminus, GAL4-AD prey (from UniProt Q9H4B7 317-451) (domain or fragment)” it was “binds”.
Consider “TUBB2A C terminus (Phe-317 to the stop codon), GAL4-AD prey (from UniProt Q13885 317-445) (domain or fragment)”, for which the binding entry is reported as “no binding”.
Turning to “TUBB2A S364A C terminus, GAL4-AD prey (from UniProt Q13885 317-445) (domain or fragment)”, the binding entry is “binds”.
Consider “TUBB2B C terminus (Phe-317 to the stop codon), GAL4-AD prey (from UniProt Q9BVA1 317-445) (domain or fragment)”, for which the binding result was “no binding”.
As for “TUBB2B S364A C terminus, GAL4-AD prey (from UniProt Q9BVA1 317-445) (domain or fragment)”, the binding entry is “binds”.
For the substance “TUBB2C C terminus (Phe-317 to the stop codon), GAL4-AD prey (from UniProt P68371 317-445) (domain or fragment)”, the binding entry is reported as “no binding”.
Take “TUBB2C S364A C terminus, GAL4-AD prey (from UniProt P68371 317-445) (domain or fragment)”: the binding entry is “binds”.
As for “TUBB3 C terminus (Phe-317 to the stop codon), GAL4-AD prey (from UniProt Q13509 317-450) (domain or fragment)”, the binding entry is “no binding”.
Turning to “TUBB3 S364A C terminus, GAL4-AD prey (from UniProt Q13509 317-450) (domain or fragment)”, the binding result is given as “binds”.
Still for that read-out and setting: in the case of “TUBB4 A364D C terminus, GAL4-AD prey (from UniProt P04350 317-444) (domain or fragment)” it was “no binding”; in that of “TUBB4 A364E C terminus, GAL4-AD prey (from UniProt P04350 317-444) (domain or fragment)”, “no binding”.
For the substance “TUBB4 A364S C terminus, GAL4-AD prey (from UniProt P04350 317-444) (domain or fragment)”, the binding result is given as “no binding”.
In the case of “TUBB4 C terminus (Phe-317 to Ala-444), GAL4-AD prey (from UniProt P04350 317-444) (domain or fragment)”, the binding entry is “binds”.
As to “TUBB6 A364S C terminus, GAL4-AD prey (from UniProt Q9BUF5 317-446) (domain or fragment)”, the binding entry is recorded as “binds”.
With “TUBB6 C terminus (Phe-317 to the stop codon), GAL4-AD prey (from UniProt Q9BUF5 317-446) (domain or fragment)”, the binding result was “binds”.
Still for that read-out and setting: in the case of “TUBB6 K362S C terminus, GAL4-AD prey (from UniProt Q9BUF5 317-446) (domain or fragment)” it was “binds”; in that of “TUBB6 P320R C terminus, GAL4-AD prey (from UniProt Q9BUF5 317-446) (domain or fragment)”, “binds”.
Consider “TUBB6 P320R/A364S C terminus, GAL4-AD prey (from UniProt Q9BUF5 317-446) (domain or fragment)”, for which the binding entry is “no binding”.
Regarding “TUBB6 P320R/K362S C terminus, GAL4-AD prey (from UniProt Q9BUF5 317-446) (domain or fragment)”, the binding entry is listed as “no binding”.

The next test addresses FLAG-tagged TUBB4 C terminus (human) (UniProt P04350). The test can be described thus: co-IP; HEK293 cells transfected with FLAG-β-tubulin and myc-LRRK2 constructs; lysate on anti-FLAG M2 affinity gel overnight at 4 °C, elution with 3xFLAG peptide, anti-myc blot.
For the substance “myc-tagged LRRK2 RocCOR domain (from UniProt Q5S007) (domain or fragment)”, the binding entry is listed as “binds”.

A further test deals with LRRK2 RocCOR tandem domain (LexA-BD bait, wild type) (human) (UniProt Q5S007). The test can be described thus: two-hybrid; screen of a human whole brain cDNA library with a LRRK2 RocCOR domain bait.
On to “TUBB4 C terminus (Phe-317 to Ala-444), GAL4-AD prey (from UniProt P04350 317-444) (domain or fragment)”, for which the binding entry is “binds”.

The next test shares this target. As to the kind of experiment: two-hybrid; quantitative YTH (Q-YTH): chlorophenol-red-β-D-galactopyranoside colour change at 540 nm, background (bait + empty pACT2) subtracted, normalised to wild-type RocCOR = 100%.
“TUBB4 C terminus (Phe-317 to Ala-444), GAL4-AD prey (from UniProt P04350 317-444) (domain or fragment)”: the binding entry is “binds”.
